Experimental findings from patent publication US20240336686A1 are described below.

Chains of the proteins cited; added tags and fusions are not shown. Lines headed by an entry give the natural chain unless they say otherwise; changes in a name come on top. A line that says so, or that is headed by a name, gives the form on record, which may keep a tag or linker. Residues count along the entry.
UniProt P78324: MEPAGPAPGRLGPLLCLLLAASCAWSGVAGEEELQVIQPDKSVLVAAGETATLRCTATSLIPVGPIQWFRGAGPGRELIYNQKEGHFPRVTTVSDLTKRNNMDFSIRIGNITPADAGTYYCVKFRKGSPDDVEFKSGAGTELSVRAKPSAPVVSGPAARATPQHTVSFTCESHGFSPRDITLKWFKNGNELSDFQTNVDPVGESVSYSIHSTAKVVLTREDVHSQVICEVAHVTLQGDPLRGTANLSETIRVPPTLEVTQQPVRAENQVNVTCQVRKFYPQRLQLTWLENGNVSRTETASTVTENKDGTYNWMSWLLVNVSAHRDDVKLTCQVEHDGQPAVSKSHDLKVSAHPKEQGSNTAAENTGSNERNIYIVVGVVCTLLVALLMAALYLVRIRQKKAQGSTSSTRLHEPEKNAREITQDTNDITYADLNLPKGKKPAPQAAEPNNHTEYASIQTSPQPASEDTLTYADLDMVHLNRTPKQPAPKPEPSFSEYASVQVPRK
human SIRPα v1 on CHOK1 cells: residues 31-504 of P78324
His tagged human SIRPα v1 ECD: residues 31-373 of P78324

These are yes or no findings as the source states them, for the method shown. Some entries that bind do so weakly or less than the wild type.

Assay [1] deals with human SIRPα v1 on CHOK1 cells (human) (UniProt P78324). The assay is described as follows: FACS; CHOK1 or 293F cells stably expressing human SIRPα v1. (In general: Flow cytometry measures light scatter and fluorescence of single cells or particles in a stream.)
Assay [2] has as its target His tagged human SIRPα v1 ECD (human) (UniProt P78324). Briefly: HDX-MS.

B1: Reference anti-SIRPα antibody hu1H9G4 (antibody, human IgG4, V domains shown)
VH: QVQLVQSGAEVKKPGASVKVSCKASGYTFTSYWITWVKQAPGQGLEWIGDIYPGSGSTNHIEKFKSKATLTVDTSISTAYMELSRLRSDDTAVYYCATGYGSSYGYFDYWGQGTLVTVSS
VL: DIQMTQSPSSLSASVGDRVTITCRASENIYSYLAWYQQKPGKAPKLLIYTAKTLAEGVPSRFSGSGSGTDFTLTISSLQPEDFATYYCQHQYGPPFTFGQGTKLELK
B1: the binding result in assay [1] and in assay [2] was “binds” throughout.
